Source: PMC12607357
No constants are given. Whether binding was seen depends on the method and setting. In cells and extracts the contact can be indirect. A yes stands for co-enrichment or nearness to the bait. Other partners may have been found.

Chains of the proteins cited; added tags and fusions are not shown.
UniProt P46937: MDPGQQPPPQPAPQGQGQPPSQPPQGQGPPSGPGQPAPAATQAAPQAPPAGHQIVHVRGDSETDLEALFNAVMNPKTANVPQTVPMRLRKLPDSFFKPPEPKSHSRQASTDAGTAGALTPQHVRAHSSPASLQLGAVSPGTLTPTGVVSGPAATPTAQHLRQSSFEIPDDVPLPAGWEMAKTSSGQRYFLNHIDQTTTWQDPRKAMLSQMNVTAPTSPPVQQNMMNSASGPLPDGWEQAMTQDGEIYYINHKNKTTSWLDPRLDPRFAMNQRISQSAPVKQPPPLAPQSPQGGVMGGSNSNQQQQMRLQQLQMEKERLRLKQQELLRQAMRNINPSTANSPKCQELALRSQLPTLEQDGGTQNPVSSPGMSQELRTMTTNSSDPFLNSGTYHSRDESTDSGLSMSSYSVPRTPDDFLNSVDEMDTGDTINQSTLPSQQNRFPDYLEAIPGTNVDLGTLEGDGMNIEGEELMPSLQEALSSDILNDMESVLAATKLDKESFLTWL
UniProt P15311: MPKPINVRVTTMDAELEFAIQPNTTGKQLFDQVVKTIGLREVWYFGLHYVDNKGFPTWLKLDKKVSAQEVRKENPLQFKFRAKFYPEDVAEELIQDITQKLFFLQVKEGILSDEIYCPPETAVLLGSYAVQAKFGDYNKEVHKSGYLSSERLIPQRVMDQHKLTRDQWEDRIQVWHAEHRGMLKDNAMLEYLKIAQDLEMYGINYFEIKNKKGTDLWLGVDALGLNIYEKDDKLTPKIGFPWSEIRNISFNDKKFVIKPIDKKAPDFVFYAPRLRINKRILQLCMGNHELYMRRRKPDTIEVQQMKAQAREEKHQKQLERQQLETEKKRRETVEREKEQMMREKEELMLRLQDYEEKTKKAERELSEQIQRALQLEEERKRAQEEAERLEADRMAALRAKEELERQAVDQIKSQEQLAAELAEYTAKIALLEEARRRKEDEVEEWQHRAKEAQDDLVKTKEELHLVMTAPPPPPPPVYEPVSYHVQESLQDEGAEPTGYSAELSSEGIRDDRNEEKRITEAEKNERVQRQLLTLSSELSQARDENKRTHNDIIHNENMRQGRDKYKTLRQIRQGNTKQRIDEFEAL

Molecular target: Yes-associated protein (YAP) (human (endogenous in Caco-2)) (UniProt P46937)
Test: affinity purification with mass spectrometry; co-IP from Caco-2 lysate (0.5% Triton X100 in PBS) on protein A/G magnetic beads; SDS-PAGE, Coomassie bands cut, LC-MS/MS; with and without oleic acid treatment of the cells

binding: binds
Substance: ezrin (from UniProt P15311 1-586)
